± gives the standard deviation of the averaged measurements. Whole data set: some 3,800 compounds, median “cell shape (eccentricity) Z-score vs DMSO control” near 1.1, cut for the lowest 2% near -4.7. The list shows a part of the results.
These compounds were tested on human monocyte-derived macrophages (M0) (assay: cell shape (eccentricity) Z-score vs DMSO control; higher = more elongated, M2-like morphology). Conditions: 20 µM; 24 h; macrophage state: M0 (M-CSF).

Compound | cell shape (Z-score)
Nc1c2c(nc3c1CCC3)CCCC2 | -1.7
C/C=C1\C(O[C@@H]2O[C@H](CO[C@@H]3O[C@H](CO)[C@@H](O)[C@H](O)[C@H]3O)[C@@H](O)[C@H](O)[C@H]2O)OC=C(C(=O)OC)C1CC(=O)OCCc1ccc(O)cc1 (stereo not given in full) | 0.445
COc1ccc(-c2cc(=O)c3c(O)cc(OC)c(OC)c3o2)c(OC)c1 | 5.59
CCOC(=O)C1CSC(Cc2ccc(OCc3ccc([N+](=O)[O-])cc3)cc2)N1 (stereo not given) | 0.491
O=c1c(-c2cc(O)c(O)c(O)c2)coc2cc(O)c(O)c(O)c12 | 0.318
O=C(O)c1ccccc1Nc1cccc(OCc2ccc3ccccc3n2)c1 | 2.63
COC(=O)C1C(O)CCC2CN3CCc4c([nH]c5ccccc45)C3CC21 (stereo not given) | 3.44
CCCCCc1cc(OC)c2c(c1C(=O)O)OC(C)(C)C(O)C2 (stereo not given) | 1.28
CC(CN(C)C)CN1c2ccccc2Sc2ccccc21 (stereo not given) | -1.29
N#CC(=C(N)Sc1ccc(N)cc1)c1ccccc1C(F)(F)F | 4.79
Cc1cccc(C=Cc2ccccc2)n1 | 0.54
CC(C)=CCc1c(O)c(CC=C(C)C)c2c(c1O)C(=O)CC(c1ccc(O)cc1O)O2 (stereo not given) | 2.32
COCC1OC(OC(C)(C)C2CCC3(C)C=C(C4CCC5C4(C)CC(O)C4OC(C(C)(C)OC6OC(CO)C(O)C(O)C6NC(C)=O)CCC45C)CCC3O2)C(NC(C)=O)C(O)C1O (stereo not given) | 0.281 ± 0.022
COC(=O)C1=CO[C@@H](O[C@@H]2O[C@H](CO)[C@@H](O)[C@H](O)[C@H]2O)C2C1CCC2(C)O (stereo not given in full) | 2.11 ± 2
OCC1OC(Oc2cc(O)cc(/C=C/c3ccccc3)c2)C(O)C(O)C1O (stereo not given) | 1.2
COc1cc(C(=O)OC2OC(CO)C(O)C(O)C2O)cc(OC)c1OC (stereo not given) | 0.582
CCn1cc(C(=O)O)c(=O)c2cc(F)c(N3CCNC(C)C3)c(F)c21 (stereo not given) | 3.49
CCCC(=O)Oc1ccc2[nH]c(C(=O)c3cc4ccccc4[nH]3)cc2c1 | 1.03
COc1ccccc1N1CCN(CCCCN2C(=O)c3ccccc3C2=O)CC1 | -2.05
O=c1c(-c2ccc(O[C@@H]3O[C@H](CO)[C@@H](O)[C@H](O)[C@H]3O)cc2)coc2c([C@@H]3O[C@H](CO)[C@@H](O)[C@H](O)[C@H]3O)c(O)cc(O)c12 | 1.61 ± 1.3
Clc1cccc(C=NC=Nc2cccc(Cl)c2)c1 | -0.334
C=C1CC[C@H]2[C@@](C)(CCC[C@@]2(C)C(=O)O)[C@@H]1CCC(C)CCO (stereo not given in full) | 1.27
COc1ccccc1OCC(O)CO (stereo not given) | 1.41

Some of the entries above in a different format:
C/C=C1\C(O[C@@H]2O[C@H](CO[C@@H]3O[C@H](CO)[C@@H](O)[C@H](O)[C@H]3O)[C@@H](O)[C@H](O)[C@H]2O)OC=C(C(=O)OC)C1CC(=O)OCCc1ccc(O)cc1 (stereo not given in full)
  cell shape (Z-score): 0.445
CCOC(=O)C1CSC(Cc2ccc(OCc3ccc([N+](=O)[O-])cc3)cc2)N1 (stereo not given)
  cell shape (Z-score): 0.491
O=c1c(-c2cc(O)c(O)c(O)c2)coc2cc(O)c(O)c(O)c12
  cell shape (Z-score): 0.318

(next part)

Compound | cell shape (Z-score)
C[C@@]12C[C@]3(O)O[C@H](O1)[C@]1(COC(=O)c4ccccc4)[C@H]3C[C@@]12O[C@@H]1O[C@H](CO)[C@@H](O)[C@H](O)[C@H]1O | 1.76
OCCOCCN1CCN(Cc2cccc(Oc3ccccc3)c2)CC1 | -0.227
NC(=O)c1ccc2[nH]ccc2c1 | 1.86
COc1c(O)cc2occ(-c3ccccc3O)c(=O)c2c1O | -2.75
CN(C)c1ccc(C(=C2C=CC(=[N+](C)C)C=C2)c2ccc(N(C)C)cc2)cc1 | -4.21
Oc1c(Cl)cc(Cl)c(Cl)c1Cc1c(O)c(Cl)cc(Cl)c1Cl | 2.11
COc1ccc2ccc(=O)oc2c1C(OC(C)=O)C(=O)C(C)C (stereo not given) | 2.3
O=C1C[C@@H](c2ccccc2)Oc2cc(O)cc(O)c21 | -0.699
CC1C(OC(=O)C(O)c2ccccc2)CCC(C)(C)N1C (stereo not given) | 1.74
CCCCCCCC(O)C(O)C1CC(OC)=CC(=O)O1 (stereo not given) | 0.184
Nc1nc(Cl)nc2c1ncn2C1OC(CO)C(O)C1F (stereo not given) | 0.328
O=c1cc(-c2ccc(O)cc2)oc2cc(O)c(C3OC(CO)C(O)C(O)C3O)c(O)c12 (stereo not given) | -3.39
COc1ccc(-c2noc(CC(=O)O)c2-c2ccc(OC)cc2)cc1 | -1.42
CNC(=N)NC(=O)Nc1c(C)cccc1C | 1.21
COC1CC(OC2CCC3(C)C(CCC4(O)C3CC(OC(=O)c3ccccc3)C3(C)C(O)(C(C)=O)CCC43O)C2)OC(C)C1OC1CC(OC)C(OC2OC(C)C(OC3OC(CO)C(O)C(O)C3O)C(OC)C2O)C(C)O1 (stereo not given) | -0.183
Cc1ccc(S(=O)(=O)OCC(=O)Nc2ccc(C(=O)O)c(O)c2)cc1 | 5.47
C/C(=C\CCC1(C)C2CC3C(C2)C31C)C(=O)O (stereo not given) | -2.64
C/C=C(/C)C(=O)O[C@@H]1c2cc(OC)c(OC)cc2-c2c(ccc(OC)c2OC)C[C@H]2C(=O)OC[C@H]12 | -2.36 ± 3.5
C=C1C(O)CC2C(C(=O)OC)=CO[C@@H](O[C@@H]3O[C@H](CO)[C@@H](O)[C@H](O)[C@H]3O)C12 (stereo not given in full) | 0.0775
COc1ccccc1N1CCN(CCN2C(=O)c3ccccc3C(C)(C)C2=O)CC1 | 2.56
COc1ccc(C2Oc3c(OC)cc(CCCO)cc3C2CO)cc1OC1OC(CO)C(O)C(O)C1O (stereo not given) | -0.384
COc1ccc(OC)c2c(=S)c3ccccc3[nH]c12 | -0.54
O=C(CC(O)(CC(=O)OCc1ccc(O[C@@H]2O[C@H](CO)[C@@H](O)[C@H](O)[C@H]2O)cc1)C(=O)OCc1ccc(O[C@@H]2O[C@H](CO)[C@@H](O)[C@H](O)[C@H]2O)cc1)OCc1ccc(O[C@@H]2O[C@H](CO)[C@@H](O)[C@H](O)[C@H]2O)cc1 | 3.21

Compound | cell shape (Z-score)
O=C(O)/C=C/CCCCCCCC(=O)O | 1.27
CNC(CC(=O)O)C(=O)O (stereo not given) | 2.59
CCOc1cc(/C=C(/C#N)C(N)=O)cc(CSc2ccccc2)c1O | 2.62
CCCc1c(-c2ccc(O)cc2)nn(-c2ccc(O)cc2)c1-c1ccc(O)cc1 | 2.99
COc1ccc(-c2nc(C(=O)N3CCN(C)CC3)sc2-c2ccc(OC)cc2)cc1 | 0.472
CNNCc1ccc(C(=O)NC(C)C)cc1 | 2.01
C#CC1(O)CCC2C3CCC4=Cc5oncc5CC4(C)C3CCC21C (stereo not given) | 5.13
CC(=O)[C@H]1CCC2C3CCC4=CC(=O)CC[C@]4(C)C3[C@H](OC(=O)CCC(=O)O)C[C@@]21C (stereo not given in full) | 0.421
Cc1cc(O)c2c(c1)C(=O)OC2c1c(O)cccc1O (stereo not given) | 2.62 ± 1.9
O=C1c2ccccc2C(=O)C1c1ccc(Cl)cc1 | 3.26
CC(C)Cn1c(=O)n(C)c(=O)c2nc[nH]c21 | -1.69
FC(F)(F)c1ccc(Nc2nccc(-c3cccc(Cl)c3)n2)cc1 | 2.57
C[C@@H]1O[C@@H](Oc2ccc3c(=O)c(-c4ccc(O)cc4)coc3c2)[C@H](O)[C@H](O)[C@H]1O | -0.761 ± 1.1
COc1cc(N)c(Cl)cc1C(=O)OCCCN1CCCCC1 | 0.848
Cc1cc([C@@H](C)Nc2ccccc2C(=O)O)c2nc(N3CCOCC3)cc(=O)n2c1 | 4.32
O=c1c(-c2ccc(O)cc2)coc2cc(O)ccc12 | 2.92
CC(C)(C(=O)NCC(F)(F)C(F)(F)F)C(=O)N[C@@H]1C(=O)Nc2ccccc2-c2ccccc21 | 2.37
CC(=O)O[C@@H]1CC2C(C)(C)[C@H](O)CC[C@]2(C)C2CC[C@@]3(C)[C@H](c4ccoc4)OC(=O)C4OC43[C@@]21C (stereo not given in full) | 2.33
COc1ccc2c(c1)c(CC(=O)OCC(=O)O)c(C)n2C(=O)c1ccc(Cl)cc1 | 2.11
COC(=O)[C@@H]1[C@H]2C[C@H]3c4[nH]c5ccccc5c4CCN3C[C@@H]2CC[C@@H]1O | -0.402
COc1[nH]c(N)nc2ncnc1-2 | 1.66
Nc1nc2ccc(OC(F)(F)F)cc2s1 | 6.29
C=C(C(=O)O)[C@@H]1CC[C@@]2(C)C=CC(=O)[C@@H](CCC3(O)C(=O)C=C[C@]4(C)CC[C@@H](C(=C)C(=O)O)C[C@@H]34)[C@@H]2C1 (stereo not given in full) | 1.43

Compounds listed so far with an aryl thioether with sulfur outside any ring, in the order listed:
Compound | cell shape (Z-score)
N#CC(=C(N)Sc1ccc(N)cc1)c1ccccc1C(F)(F)F | 4.79
CCOc1cc(/C=C(/C#N)C(N)=O)cc(CSc2ccccc2)c1O | 2.62

Continuation.

Compound | cell shape (Z-score)
CCCCC/C=C/C(=O)CCc1ccc(O)c(OC)c1 | -1
N#CC(=Cc1ccc(O)c(O)c1)C(=O)NCc1ccccc1 | -2.23
c1ccc(-c2n[nH]cc2-c2ccnc3ccccc23)nc1 | 6.3
C/C(=C\CCC1(C)C2CCC(C2)C1(C)O)C(=O)O (stereo not given) | -2.12
O=c1c2ccccc2nc(/C=C/c2cccnc2)n1Cc1ccccc1 | -3
COc1ccc(C[C@H]2COC(=O)[C@@H]2Cc2ccc(O[C@@H]3O[C@H](CO)[C@@H](O)[C@H](O)[C@H]3O)c(OC)c2)cc1OC | 2.24
COc1cc(-c2coc3cc(O[C@@H]4O[C@H](CO)[C@@H](O)[C@H](O)[C@H]4O)c(OC)c(O)c3c2=O)cc(O)c1OC | 0.753
O=C(Nc1ccccc1)C12CC1C(=NO)c1ccccc1O2 (stereo not given) | -0.435
CC1O[C@@H](Oc2c(-c3ccc(O)c(O)c3)oc3cc(O)cc(O)c3c2=O)[C@H](O)[C@H](O)[C@H]1O (stereo not given in full) | 1.34
C[C@H](CO)N1C[C@H](C)[C@@H](CN(C)C(=O)NC2CCCCC2)Oc2ccc(NC(=O)Cc3cn(C)c4ccccc34)cc2C1=O | 4.05
COc1cccc(OC)c1C(=O)N[C@@H]1C(=O)N2[C@@H]1SC(C)(C)[C@@H]2C(=O)O | 1.23
C[C@@H]1O[C@@H](O[C@@H]2[C@@H](O)[C@H](OCCc3ccc(O)c(O)c3)O[C@H](CO[C@@H]3OC[C@](O)(CO)[C@H]3O)[C@H]2OC(=O)/C=C/c2ccc(O)c(O)c2)[C@H](O[C@@H]2OC[C@H](O)[C@H](O)[C@H]2O)[C@H](O)[C@H]1O | 1.71
COc1c(O)cc(-c2oc3cc(O)cc(O)c3c(=O)c2O[C@@H]2O[C@@H](C)[C@H](O)[C@@H](O)[C@H]2O)cc1O | 0.909
CN(C)CCCN1c2ccccc2Sc2ccc(Cl)cc21 | 2.57
COc1cc(Nc2ncc(F)c(Nc3ccc4c(n3)NC(=O)C(C)(C)O4)n2)cc(OC)c1OC | 5.01
N[C@@H]1CCCC[C@H]1N.O=C1[O][Pt][O]C1=O | -2.82 ± 1.4
c1nc(CCCC2CCNCC2)c[nH]1 | -0.166
Cc1ccc(Nc2nccc(N(C)c3ccc4c(C)n(C)nc4c3)n2)cc1S(N)(=O)=O | 2.61 ± 0.72
Cc1[nH]c(/C=C2\C(=O)Nc3ccc(S(=O)(=O)N(C)c4cccc(Cl)c4)cc32)c(C)c1C(=O)N1CCN(C)CC1 | 19.3
C(=NNC1=NCCN1)c1c2ccccc2c(C=NNC2=NCCN2)c2ccccc12 | 8.02
CC1CCC(NC(=O)N(CCCl)[N+][O-])CC1 (stereo not given) | 2.38

— the supplement of paper PMC7858590
